Here are results for 4 compounds from PubChem BioAssay AID624098 (National Center for Advancing Translational Sciences (NCATS), 2012).

Some of the results follow. The main result of the screen is listed elsewhere. These columns were measured beside it and carry no call. Most of these compounds were active or inconclusive in the main read-out, so they are no random draw.

The assay can be described thus: Assay for General Anesthetic Phenotype in Xenopus Tadpoles. The note with it: startle-response immobility, 1 h, measured here: 24 h immobility, toxicity/death, at 10 µM. From the text:
Anesthetic development has remained a largely empirical process. There are growing concerns about the cognitive effects of known general anesthetics and acceleration of the onset of neurodegenerative disease. The compounds' toxicity and multiple specific binding targets in the mammalian brain [4] has made them less attractive as drug leads. This assay was designed for the in vivo follow-up testing of compounds in tadpoles. References: [1] S.L. Bianchi, T. Tran, C. Liu, S. Lin, Y. Li, J.M. Keller, R.G. Eckenhoff, and M.F. Eckenhoff, Brain and behavior changes in 12-month-old Tg2576 and nontransgenic mice exposed to anesthetics. Neurobiol Aging 29 (2008) 1002-10. Z. Xie, Y. Dong, U. Maeda, R.D. Moir, W. Xia, D.J. Culley, G. Crosby, and R.E. Tanzi, The inhalation anesthetic isoflurane induces a vicious cycle of apoptosis and amyloid beta-protein accumulation. J Neurosci 27 (2007) 1247-54. P. Honegger, and J.M. Matthieu, Selective toxicity of the general anesthetic propofol for GABAergic neurons in rat brain cell cultures. J Neurosci Res 45 (1996) 631-6. M.F. Eckenhoff, K. Chan, and R.G. Eckenhoff, Multiple specific binding targets for inhaled anesthetics in the mammalian brain. J Pharmacol Exp Ther 300 (2002) 172-9. C.A. Butts, J. Xi, G. Brannigan, A.A. Saad, S.P. Venkatachalan, R.A. Pearce, M.L. Klein, R.G. Eckenhoff, and I.J. Dmochowski, Identification of a fluorescent general anesthetic, 1-aminoanthracene. Proc Natl Acad Sci U S A 106 (2009) 6501-6. W.A. Lea, J. Xi, A. Jadhav, L. Lu, C.P. Austin, A. Simeonov, and R.G. Eckenhoff, A high-throughput approach for identification of novel general anesthetics. PLoS One 4 (2009) e7150.
Pre-limb bud Xenopus tadpoles were obtained in large batches from Nasco, Inc. Batches of 10 tadpoles were placed in 20 mm Petri dishes with approximately 20 ml of pond water ("pond water" is approximately a 20-fold dilution of Ringers saline solution). Compounds were added to the pond water from DMSO stock to obtain 100, 10 and 1 microM concentrations. Tadpoles were then incubated with these solutions for 1 hour, and then scored for "anesthesia". Anesthesia in this case is lack of movement in response to a sharp tap on the Petri dish lid, i.e., a lack of startle response. This correlates well to the loss of righting reflex in rodents and the loss of consciousness in humans. The pond water is then changed, and the return of a startle response is monitored for 24 hours. Immobility at 24 hours is considered death.
As to `O=C(Cn1nc(C2CCCCC2)ccc1=O)NCCc1ccccc1`, the immobility came to 5%.
The compound `Cc1cccc(-c2ccc(=O)n(CC(=O)NCCc3ccccc3)n2)c1` yielded an immobility of 5%.
In the case of `COc1cccc(-c2ccc(=O)n(CC(=O)NCCc3ccccc3)n2)c1`, the immobility amounted to 10%.
In turn, `O=C(Cn1nc(-c2ccccc2)ccc1=O)NCCc1ccccc1` returned an immobility of 5%.
